The other results are listed elsewhere or left out.
Columns and labels:
Experiment in all cases: log2 fold change, soluble protein after heating vs DMSO (PISA); higher = thermal stabilisation; K562 cells, 10 uM, 30 min; active = over 0.2 and 3.5 SD of the protein, either way, in both replicates (recomputed)
idasanutlin = compound: COc1cc(C(=O)O)ccc1NC(=O)[C@@H]1N[C@@H](CC(C)(C)C)[C@](C#N)(c2ccc(Cl)cc2F)[C@H]1c1cccc(Cl)c1F [idasanutlin]
Procedure, shortened: (§1)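 For each measurement, 10 μM compound was applied for 30 min to K562 cells at 2×10^6 cells/mL. Aliquots were heated for 3 min across 48°C-58°C, pooled, and extracted in PBS with 0.5% NP-40 at 4°C; the supernatant after 21,000xg for 90 min was soluble protein. This was quantified by TMTpro 16plex LC-MS/MS with channel sums equalised, and thermal stability was reported relative to control samples from duplicates, on a log2 fold-change scale.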

Sequences of proteins named here, by UniProt entry; tags and fusion partners are left off. A change or cut given only in a name is not applied to a line headed by its entry.
UniProt Q6P087: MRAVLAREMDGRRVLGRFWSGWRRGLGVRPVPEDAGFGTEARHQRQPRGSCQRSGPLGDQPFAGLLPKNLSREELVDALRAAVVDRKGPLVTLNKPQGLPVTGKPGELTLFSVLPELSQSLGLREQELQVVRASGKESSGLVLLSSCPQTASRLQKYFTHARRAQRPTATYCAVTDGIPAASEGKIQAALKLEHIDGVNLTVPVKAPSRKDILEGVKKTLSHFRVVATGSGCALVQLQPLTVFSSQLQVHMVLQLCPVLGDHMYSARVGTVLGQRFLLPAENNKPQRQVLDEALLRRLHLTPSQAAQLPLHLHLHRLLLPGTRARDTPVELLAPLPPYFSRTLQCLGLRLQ
UniProt P56182: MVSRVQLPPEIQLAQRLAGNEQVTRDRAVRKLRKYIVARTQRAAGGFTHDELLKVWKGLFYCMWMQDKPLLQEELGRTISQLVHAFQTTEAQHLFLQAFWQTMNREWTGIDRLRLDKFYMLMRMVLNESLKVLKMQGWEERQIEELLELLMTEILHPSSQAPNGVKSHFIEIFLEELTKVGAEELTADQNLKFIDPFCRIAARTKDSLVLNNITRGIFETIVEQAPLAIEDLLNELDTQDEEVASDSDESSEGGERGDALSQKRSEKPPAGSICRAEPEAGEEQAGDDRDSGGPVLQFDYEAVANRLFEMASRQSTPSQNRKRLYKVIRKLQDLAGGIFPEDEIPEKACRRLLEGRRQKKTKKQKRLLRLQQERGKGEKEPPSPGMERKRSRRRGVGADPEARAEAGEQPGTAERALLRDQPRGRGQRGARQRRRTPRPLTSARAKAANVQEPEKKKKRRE
UniProt P60602: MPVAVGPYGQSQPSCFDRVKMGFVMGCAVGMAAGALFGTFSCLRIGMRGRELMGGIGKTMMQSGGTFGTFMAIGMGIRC
UniProt Q9NYV6: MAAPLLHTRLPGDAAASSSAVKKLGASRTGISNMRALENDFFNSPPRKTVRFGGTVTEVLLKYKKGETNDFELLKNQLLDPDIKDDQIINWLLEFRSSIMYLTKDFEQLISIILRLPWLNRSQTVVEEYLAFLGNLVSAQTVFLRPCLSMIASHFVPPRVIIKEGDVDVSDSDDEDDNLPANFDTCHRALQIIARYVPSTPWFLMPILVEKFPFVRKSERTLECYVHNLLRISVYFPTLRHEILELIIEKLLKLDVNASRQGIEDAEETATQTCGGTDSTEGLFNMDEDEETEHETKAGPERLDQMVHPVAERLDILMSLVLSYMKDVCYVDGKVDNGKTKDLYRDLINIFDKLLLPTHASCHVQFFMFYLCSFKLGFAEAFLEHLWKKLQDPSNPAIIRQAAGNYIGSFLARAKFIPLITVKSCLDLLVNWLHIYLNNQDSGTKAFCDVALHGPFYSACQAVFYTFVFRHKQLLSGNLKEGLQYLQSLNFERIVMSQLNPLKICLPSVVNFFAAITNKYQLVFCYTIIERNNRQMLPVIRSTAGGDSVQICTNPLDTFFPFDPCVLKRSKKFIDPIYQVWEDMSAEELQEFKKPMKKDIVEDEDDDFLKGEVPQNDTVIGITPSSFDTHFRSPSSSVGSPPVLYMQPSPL
UniProt Q8IXW5, whole entry, looked up: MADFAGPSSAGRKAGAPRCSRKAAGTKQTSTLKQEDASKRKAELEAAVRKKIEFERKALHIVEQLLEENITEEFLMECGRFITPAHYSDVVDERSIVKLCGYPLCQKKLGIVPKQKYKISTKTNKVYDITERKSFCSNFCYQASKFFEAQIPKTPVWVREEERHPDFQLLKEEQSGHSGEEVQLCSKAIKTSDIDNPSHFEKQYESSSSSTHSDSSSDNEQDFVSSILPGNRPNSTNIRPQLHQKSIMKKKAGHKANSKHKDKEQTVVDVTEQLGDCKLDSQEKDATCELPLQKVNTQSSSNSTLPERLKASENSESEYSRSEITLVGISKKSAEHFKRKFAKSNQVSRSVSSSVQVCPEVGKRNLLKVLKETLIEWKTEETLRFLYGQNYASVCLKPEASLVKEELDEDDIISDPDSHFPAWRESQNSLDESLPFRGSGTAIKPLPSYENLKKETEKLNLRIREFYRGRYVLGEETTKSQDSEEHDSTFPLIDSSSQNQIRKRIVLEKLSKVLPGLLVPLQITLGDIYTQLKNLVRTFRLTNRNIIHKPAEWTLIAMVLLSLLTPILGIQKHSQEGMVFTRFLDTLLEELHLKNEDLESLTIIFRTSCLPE
UniProt Q92766: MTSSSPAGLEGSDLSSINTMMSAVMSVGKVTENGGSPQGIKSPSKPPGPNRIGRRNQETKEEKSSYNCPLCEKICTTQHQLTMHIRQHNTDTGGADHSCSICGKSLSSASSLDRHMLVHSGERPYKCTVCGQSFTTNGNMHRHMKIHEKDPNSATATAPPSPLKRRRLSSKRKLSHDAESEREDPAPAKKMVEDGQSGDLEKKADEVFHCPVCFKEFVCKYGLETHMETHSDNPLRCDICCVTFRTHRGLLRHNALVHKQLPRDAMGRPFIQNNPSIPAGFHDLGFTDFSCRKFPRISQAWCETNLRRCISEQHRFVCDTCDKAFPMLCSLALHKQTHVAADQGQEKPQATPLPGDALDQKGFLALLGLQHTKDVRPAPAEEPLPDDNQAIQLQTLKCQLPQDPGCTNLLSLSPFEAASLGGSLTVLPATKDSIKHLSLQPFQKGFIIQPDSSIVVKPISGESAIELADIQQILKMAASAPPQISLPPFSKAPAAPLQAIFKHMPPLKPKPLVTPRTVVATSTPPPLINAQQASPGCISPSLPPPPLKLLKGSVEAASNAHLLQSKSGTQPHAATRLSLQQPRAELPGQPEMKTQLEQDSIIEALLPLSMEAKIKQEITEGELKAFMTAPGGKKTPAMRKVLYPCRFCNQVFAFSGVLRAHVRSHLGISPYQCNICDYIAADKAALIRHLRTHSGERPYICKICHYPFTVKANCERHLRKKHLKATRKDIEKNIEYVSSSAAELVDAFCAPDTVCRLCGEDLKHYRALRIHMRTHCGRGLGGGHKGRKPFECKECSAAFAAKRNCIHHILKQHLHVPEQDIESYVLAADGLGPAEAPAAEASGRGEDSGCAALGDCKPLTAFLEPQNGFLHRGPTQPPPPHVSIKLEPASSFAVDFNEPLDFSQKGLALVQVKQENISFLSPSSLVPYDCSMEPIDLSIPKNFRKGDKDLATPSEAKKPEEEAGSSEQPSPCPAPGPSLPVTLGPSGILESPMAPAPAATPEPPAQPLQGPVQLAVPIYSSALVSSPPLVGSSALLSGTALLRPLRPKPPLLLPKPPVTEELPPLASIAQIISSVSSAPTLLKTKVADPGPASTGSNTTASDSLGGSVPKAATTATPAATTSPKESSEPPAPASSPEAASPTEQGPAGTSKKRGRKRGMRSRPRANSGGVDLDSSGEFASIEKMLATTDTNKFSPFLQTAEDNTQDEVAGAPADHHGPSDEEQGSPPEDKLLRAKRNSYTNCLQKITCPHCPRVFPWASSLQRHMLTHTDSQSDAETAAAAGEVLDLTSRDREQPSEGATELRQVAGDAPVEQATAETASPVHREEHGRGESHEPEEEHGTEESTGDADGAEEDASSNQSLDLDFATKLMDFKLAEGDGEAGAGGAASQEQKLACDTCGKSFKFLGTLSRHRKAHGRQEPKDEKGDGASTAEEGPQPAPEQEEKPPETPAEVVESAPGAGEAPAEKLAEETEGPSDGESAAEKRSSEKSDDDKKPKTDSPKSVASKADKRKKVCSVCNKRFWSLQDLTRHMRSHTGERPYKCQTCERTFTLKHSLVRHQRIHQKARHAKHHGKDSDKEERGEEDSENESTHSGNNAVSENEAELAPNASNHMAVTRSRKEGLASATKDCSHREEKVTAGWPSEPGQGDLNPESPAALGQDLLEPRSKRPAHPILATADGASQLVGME
UniProt Q96AT9: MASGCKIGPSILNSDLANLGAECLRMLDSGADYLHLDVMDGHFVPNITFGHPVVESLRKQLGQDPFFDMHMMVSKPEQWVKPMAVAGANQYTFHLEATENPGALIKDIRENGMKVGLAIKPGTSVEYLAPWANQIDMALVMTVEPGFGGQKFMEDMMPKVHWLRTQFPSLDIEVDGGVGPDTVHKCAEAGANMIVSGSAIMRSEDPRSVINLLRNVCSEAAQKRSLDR

alisertib = compound: COc1cc(Nc2ncc3c(n2)-c2ccc(Cl)cc2C(c2c(F)cccc2OC)=NC3)ccc1C(=O)O [alisertib]
Procedure, shortened: as §1

[1] = compound: COc1cc2nc(-c3cc(F)ccc3O)nc(N[C@@H]3CNC[C@H]3C(C)(C)O)c2cc1OC
Procedure, shortened: as §1

gefitinib = compound: COc1cc2ncnc(Nc3ccc(F)c(Cl)c3)c2cc1OCCCN1CCOCC1 [gefitinib]
Procedure, shortened: as §1

[2] = compound: COc1cccc2cc(-c3nc([C@H]4CC[C@H](C(=O)O)CC4)n4ncnc(N)c34)[nH]c12
Procedure, shortened: as §1

lapatinib = compound: CS(=O)(=O)CCNCc1ccc(-c2ccc3ncnc(Nc4ccc(OCc5cccc(F)c5)c(Cl)c4)c3c2)o1 [lapatinib]
Procedure, shortened: as §1

pictilisib = compound: CS(=O)(=O)N1CCN(Cc2cc3nc(-c4cccc5[nH]ncc45)nc(N4CCOCC4)c3s2)CC1 [pictilisib]
Procedure, shortened: as §1

gandotinib = compound: Cc1cc(Nc2cc(CN3CCOCC3)c3nc(C)c(Cc4ccc(Cl)cc4F)n3n2)n[nH]1 [gandotinib]
Procedure, shortened: as §1

[3] = compound: COC1=CC=C(C=C1)CN2C=CC3=C2C=C(C=C3)C(=O)NO
Procedure, shortened: as §1

crizotinib = compound: C[C@@H](Oc1cc(-c2cnn(C3CCNCC3)c2)cnc1N)c1c(Cl)ccc(F)c1Cl [crizotinib]
Procedure, shortened: as §1

doramapimod = compound: Cc1ccc(-n2nc(C(C)(C)C)cc2NC(=O)Nc2ccc(OCCN3CCOCC3)c3ccccc23)cc1 [doramapimod]
Procedure, shortened: as §1

ispinesib = compound: Cc1ccc(C(=O)N(CCCN)[C@@H](c2nc3cc(Cl)ccc3c(=O)n2Cc2ccccc2)C(C)C)cc1 [ispinesib]
Procedure, shortened: as §1

filanesib = compound: CON(C)C(=O)N1N=C(c2cc(F)ccc2F)S[C@@]1(CCCN)c1ccccc1 [filanesib]
Procedure, shortened: as §1

zotarolimus = compound: CO[C@H]1C[C@@H]2CC[C@@H](C)[C@@](O)(O2)C(=O)C(=O)N2CCCC[C@H]2C(=O)O[C@H]([C@H](C)C[C@@H]2CC[C@H](n3cnnn3)[C@H](OC)C2)CC(=O)[C@H](C)/C=C(\C)[C@@H](O)[C@@H](OC)C(=O)[C@H](C)C[C@H](C)/C=C/C=C/C=C/1C [zotarolimus]
Procedure, shortened: as §1

[4] = compound: CS(=O)(=O)c1ccc(-c2cnc(N)c(C(=O)Nc3ccccc3)n2)cc1
Procedure, shortened: as §1

[5] = compound: C[C@@H]1COCCN1C2=NC(=NC(=C2)C3(CC3)S(=O)(=O)C)C4=C5C=CNC5=CC=C4
Procedure, shortened: as §1

[6] = compound: C[C@H](C1=CC=C(C=C1)C(=O)NC2=C3C=CNC3=NC=C2)N
Procedure, shortened: as §1

[7] = compound: Cc1cc(SCc2sc(-c3ccc(C(F)(F)F)cc3)nc2C)ccc1OCC(=O)O
Procedure, shortened: as §1

tozasertib = compound: Cc1cc(Nc2cc(N3CCN(C)CC3)nc(Sc3ccc(NC(=O)C4CC4)cc3)n2)n[nH]1 [tozasertib]
Procedure, shortened: as §1

duvelisib = compound: C[C@H](Nc1ncnc2nc[nH]c12)c1cc2cccc(Cl)c2c(=O)n1-c1ccccc1 [duvelisib]
Procedure, shortened: as §1

Measured: log2 fold change

RPUSD3 (UniProt Q6P087)
inactive: idasanutlin 0.043 | alisertib -0.066 | [1] -0.012 | gefitinib 0.041 | [2] -0.137 | lapatinib -0.025 | pictilisib -0.149 | gandotinib -0.132

RRP1 (UniProt P56182)
inactive: [3] -0.182 | pictilisib -0.09 | crizotinib 0.094 | gandotinib 0.108 | doramapimod 0.099 | ispinesib -0.154

ROMO1 (UniProt P60602)
inactive: filanesib -0.024 | zotarolimus -0.069 | idasanutlin 0.044 | alisertib 0.005 | [1] -0.024 | gefitinib 0.034 | [2] 0.033 | lapatinib -0.079 | pictilisib 0.035 | [4] 0.023 | [5] 0.121 | [6] 0.064 | gandotinib -0.033 | [7] -0.059 | ispinesib -0.061

RRN3 (UniProt Q9NYV6)
inactive: [3] 0.181 | [1] 0.202 | lapatinib 0.191 | pictilisib -0.146 | crizotinib -0.658 | [5] 0.056 | gandotinib -0.136 | doramapimod -0.218

RPAP2 (UniProt Q8IXW5)
inactive: [3] -0.003 | filanesib -0.008 | zotarolimus 0.101 | idasanutlin -0.098 | pictilisib 0.093 | [4] 0.081 | crizotinib -0.197 | [5] -0.037 | [6] 0.353 | gandotinib -0.07 | tozasertib 0.088 | doramapimod 0.192 | ispinesib -0.248

RREB1 isoform 2 (UniProt Q92766)
inactive: [3] 0.023 | filanesib 0.029 | zotarolimus 0.055 | alisertib -0.019 | [1] 0.014 | [2] 0.045 | lapatinib 0.082 | pictilisib 0.166 | [4] 0.048 | crizotinib -0.321 | [5] 0.014 | [6] 0.091 | duvelisib 0.082 | gandotinib -0.209 | tozasertib 0.176 | [7] -0.052 | doramapimod 0.171 | ispinesib -0.08

RPS7, A0A2R8Y623
inactive: [3] 0.464 | filanesib 0.113 | idasanutlin 0.746 | alisertib 0.344 | gefitinib 0 | [2] -0.198 | [4] -0.106 | crizotinib -0.103 | tozasertib 0.195 | doramapimod -0.158 | ispinesib -0.045

RPE (UniProt Q96AT9)
inactive: [3] 0.19 | zotarolimus 0.042 | idasanutlin -0.028 | alisertib 0.072 | [1] -0.092 | gefitinib 0.032 | [2] 0.037 | lapatinib 0 | crizotinib -0.02 | [5] 0.091 | [6] -0.034 | duvelisib 0.149 | tozasertib 0.068 | [7] -0.008 | doramapimod -0.038 | ispinesib 0.039

RPS3 (UniProt E9PJN9)
inactive: pictilisib 0.129 | gandotinib -0.017 | [7] 0.148 | ispinesib -0.224

2 neighbouring records already listed:
RPS7, A0A2R8Y623
inactive: [3] 0.464 | filanesib 0.113 | idasanutlin 0.746 | alisertib 0.344 | gefitinib 0 | [2] -0.198 | [4] -0.106 | crizotinib -0.103 | tozasertib 0.195 | doramapimod -0.158 | ispinesib -0.045

RPE (UniProt Q96AT9)
inactive: [3] 0.19 | zotarolimus 0.042 | idasanutlin -0.028 | alisertib 0.072 | [1] -0.092 | gefitinib 0.032 | [2] 0.037 | lapatinib 0 | crizotinib -0.02 | [5] 0.091 | [6] -0.034 | duvelisib 0.149 | tozasertib 0.068 | [7] -0.008 | doramapimod -0.038 | ispinesib 0.039

— the supplement of paper PMC10849652
